Binding data for one molecule are collected here from paper PMC6791870, “Switch of the interactions between the ribosomal stalk and EF1A in the GTP- and GDP-bound conformations” (Scientific Reports, 2019).

No constants are given. Whether binding was seen depends on the method and setting. A result given as binding can be weak or reduced; the word gives no strength.

This assay has as its target Aeropyrum pernix aP1 lacking the C-terminal F111 (ApeP1 ΔF111) (Aeropyrum pernix). Nature of the assay: native gel or EMSA; ApeP1 WT or ∆F111 (200 pmol) incubated with 100, 200 and 400 pmol of ApeEF1A•GTP; Native-PAGE as in Nomura et al., 2012; Coomassie staining; both purified. Background: Mobility shift assays separate free from complexed probe on a gel.

B1: Aeropyrum pernix elongation factor aEF1A (ApeEF1A), GTP-bound form (protein, UniProt Q9YAV0 1-437)
chain: MAEKPHMNLVVIGHVDHGKSTLVGHLLYRLGYIEEKKLKELEEQAKSRGKESFKFAWILDKMKEERERGITIDLTFMKFETKKYVFTIIDAPGHRDFVKNMITGASQADAAILVVSARKGEFEAGMSTEGQTREHLLLARTMGIEQIIVAVNKMDAPDVNYDQKRYEFVVSVLKKFMKGLGYQVDKIPFIPVSAWKGDNLIERSPNMPWYNGPTLVEALDQLQPPAKPVDKPLRIPVQNVYSIPGAGTVPVGRVETGVLRVGDKVVFMPPGVVGEVRSIEMHYQQLQQAEPGDNIGFAVRGVSKSDIKRGDVAGHLDKPPTVAEEFEARIFVIWHPSAITVGYTPVIHVHTASVSSRIIEIKAKLDPKTGQVVEQNPQFLKAGDAAIVRFKPVKPLVVEKFSEIPQLGRFAMRDMNRTVGIGIVTDVKPAKVDIKAK
For B1, the binding entry is recorded as “binds”.
